Results as given in PMC10163288.
The other results are listed elsewhere or left out.

B1: il10ra_site1_normal_mot_HHH_b2_00230_000000227_0001_1_19_H_._HHH_b1_03982_0001_0000200023_0000001_0 (protein)
chain: SSSSDESYEIVRKAIEEAVEALRNGNPEEARKIVEEAIELIEELGNVNARHVLEHLLRIINSSSS
B2: il10ra_site1_normal_mot_5fda0655e6834f3f331eaa9f580e88ed_0001_af2_000000239_0001_36_50_H_._a6da520ff4a02840130205282d0b8d49_0001_0001_0000100004_0000001_0_af2pr … (protein)
chain: SREFQQLLAALEAAGGDPRQVELLLEAALRLLGDPAVEKVLRLLREALERGIPPEELLKELEEEG
B3: il10ra_site1_normal_mot_HHH_b1_06994_000000193_0001_40_55_H_._HHH_b1_06996_0001_0000100003_0000001_0_af2pred_0001 (protein)
chain: SSSSDREEQLARAALRLVEILIKAGDEEQARLFLRNAKYSVERLGDDEILRKLEELEEELSSSSS
B4: il10ra_site1_sap_27_mot_HHH_b1_06128_000000102_0001_1_20_H_._HHH_b1_02043_af2_0001_0000100004_0000002_0_0001 (protein)
chain: SSSSDVEEEVRELLEEAQRYYEEGNPQEVFRLIEEAIKVASEHGDEEAQKLVHEFLHEMFGSSSS
B5: il10ra_site1_sap_22_mot_HHH_b1_06804_000000054_0001_40_54_H_._HHH_b1_06220_0001_0000300030_0000002_0_0001_af2pred_dldesign_0_af2pred (protein)
chain: SSSSSPEVDALVRRSVELAKQLEDKEERLRAVRYALAIAEAANNAAAAALAREAIEEILESSSSS
B6: il10ra_site1_normal_mot_8756ee2cf497b5429c717dfc0c0bcfd6_0001_000000186_0001_1_13_H_._HHH_b1_05110_0001_0000100003_0000001_0_af2pred_0001 (protein)
chain: SSSSSEELERVQELLRRLAELISDGDDEEARQLIEEAKELIEEANSEVLRAILEFLEKLLNSSSS
B7: il10ra_site1_normal_mot_HHH_b2_00984_000000042_0001_1_20_H_._HHH_b2_04190_0001_0001400028_0000001_0 (protein)
chain: SSSSSSDLEELLEELEEAVREGDRELVSRIAQRAARHAMELGDQETLRELWELIQKFARSSSSSS
B8: il10ra_site1_sap_14_mot_HHH_b2_02649_000000088_0001_38_55_H_._81d5ae1f4baf8c7fe012e9a1203c0b55_0001_af2_0001_0000600011_0000001_1_0001 (protein)
chain: SSSSDEERHELFELLREIAELEHDGNPEEARKLLEEAQEIAEEAGNRLFLWQLRFLEETISSSSS
B9: il10ra_site1_normal_mot_HHH_b1_02809_af2_000000277_0001_40_57_H_._HHH_b2_06724_0001_0000600014_0000001_0_af2pred_0001 (protein)
chain: SSSSSSSDEEAVRRLLEAAKLIEDEELLKLSLKFAEALARALNNEELERLIKEVEEEVSSSSSSS
B10: il10ra_site1_normal_mot_HHH_b2_06752_000000207_0001_1_21_H_._HHH_b1_05292_0001_0000300020_0000002_0_af2pred_0001 (protein)
chain: SSSSSHDQEAARAIEKLAKLADTPELLKLALRSARALLEATKDEEAQEILEEVERLLEELLSSSS

What follows are binders tested against il10ra, Q13651 (assay: yeast display titration).

Apparent Kd, inactive:
B1 no binding seen
B2 no binding seen
B3 no binding seen
B4 no binding seen
B5 no binding seen
B6 no binding seen
B7 no binding seen
B8 no binding seen
B9 no binding seen
B10 no binding seen

A stretch from the list above:
Apparent Kd, inactive:
B8 no binding seen
B9 no binding seen
